PubChem BioAssay AID1259298 – Sanger Institute, 2017
Here is an unselected part of 794 reagents. In the full data, 20 (2.5%) were called active. 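Calls rest only on the knock-down-alone score; drug synergy scores played no part in them.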 No viability above 1 is reported: the scale is capped. The record does not give: the amount of reagent, the time to read-out.

Screen: 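Kinase knock-downs that cut colorectal cancer cell viability or act with targeted drugs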 (primary screen)
System: HT55 human colorectal cancer cell line
Reagents: siRNA pool against human genes
Conditions: anchor drug BYL719 1 µM, cetuximab 5 µg/ml or trametinib 10 nM, or DMSO vehicle alone
Detection: 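Mean viability over replicates versus non-targeting pool, a robust z-score without drug, and per-drug synergy scores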
Direction: robust z-score, knock-down alone: higher = more cells remaining; low means essential gene; viability vs control pool, no drug: higher = more viable cells; synergy score with BYL719 and synergy score with cetuximab and synergy score with trametinib: higher = stronger synthetic lethality with the drug
Rule for the call: 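Essential when the robust z-score for knock-down alone with DMSO is below -3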
Meaning of the calls: active = essential (knock-down alone); inactive = no change alone

gene knocked down | robust z-score, knock-down alone | viability vs control pool, no drug (fraction) | synergy score with BYL719 | synergy score with cetuximab | synergy score with trametinib | activity call
GUCY2D (guanylate cyclase 2D, retinal) | -2.48 | 0.761 | -0.232 | -0.028 | -0.028 | inactive
HK3 (hexokinase 3) | -0.338 | 0.928 | -0.198 | -0.252 | -0.133 | inactive
CSNK1G3 (casein kinase 1 gamma 3) | 0.58 | 1 | -0.272 | -0.136 | -0.0339 | inactive
FLT3 (fms related receptor tyrosine kinase 3) | 0.277 | 0.976 | -0.091 | -0.0472 | 0.00258 | inactive
TCF12 (transcription factor 12) | 0.58 | 1 | -0.224 | -0.0972 | -0.0393 | inactive
DLG3 (discs large MAGUK scaffold protein 3) | 0.58 | 1 | -0.0201 | 0.0423 | 0.0956 | inactive
PHKA1 (phosphorylase kinase regulatory subunit alpha 1) | 0.58 | 1 | -0.181 | -0.0239 | -0.0784 | inactive
MARK2 (microtubule affinity regulating kinase 2) | 0.561 | 0.999 | -0.198 | -0.213 | -0.112 | inactive
STK24 (serine/threonine kinase 24) | 0.58 | 1 | -0.125 | -0.106 | 0.0504 | inactive
CLK1 (CDC like kinase 1) | 0.58 | 1 | -0.272 | -0.211 | -0.00791 | inactive
FN1 (fibronectin 1) | 0.513 | 0.995 | -0.166 | -0.0357 | -0.0145 | inactive
MAP3K12 (mitogen-activated protein kinase kinase kinase 12) | 0.58 | 1 | 0.014 | -0.0851 | 0.0705 | inactive
POLR2B (RNA polymerase II subunit B) | -3.66 | 0.669 | -0.188 | -0.168 | 0 | active
ACVR2B (activin A receptor type 2B) | 0.58 | 1 | -0.272 | -0.211 | -0.107 | inactive
TGFBR1 (transforming growth factor beta receptor 1) | 0.58 | 1 | -0.198 | -0.211 | 0.0317 | inactive
MUSK (muscle associated receptor tyrosine kinase) | -0.59 | 0.909 | 0.0571 | 0.112 | 0.123 | inactive
WNK2 (WNK lysine deficient protein kinase 2) | 0.58 | 1 | -0.117 | -0.211 | -0.172 | inactive
CHEK1 (checkpoint kinase 1) | -3.25 | 0.7 | -0.17 | -0.154 | -0.135 | active
POMK (protein O-mannose kinase) | 0.58 | 1 | -0.269 | -0.165 | -0.149 | inactive
LMTK1 (lemur tail kinase 1) | 0.58 | 1 | -0.259 | 0.0138 | -0.116 | inactive
MYLK2 (myosin light chain kinase 2) | -2.12 | 0.789 | -0.136 | 0.0379 | 0.0526 | inactive
CDKN1A (cyclin dependent kinase inhibitor 1A) | 0.58 | 1 | -0.0911 | -0.0701 | -0.0431 | inactive
DGKI (diacylglycerol kinase iota) | 0.58 | 1 | -0.24 | -0.143 | 0.0945 | inactive

A portion taken from the entries so far:
gene knocked down | robust z-score, knock-down alone | viability vs control pool, no drug (fraction) | synergy score with BYL719 | synergy score with cetuximab | synergy score with trametinib | activity call
DLG3 (discs large MAGUK scaffold protein 3) | 0.58 | 1 | -0.0201 | 0.0423 | 0.0956 | inactive
PHKA1 (phosphorylase kinase regulatory subunit alpha 1) | 0.58 | 1 | -0.181 | -0.0239 | -0.0784 | inactive

Further records:
gene knocked down | robust z-score, knock-down alone | viability vs control pool, no drug (fraction) | synergy score with BYL719 | synergy score with cetuximab | synergy score with trametinib | activity call
PHKB (phosphorylase kinase regulatory subunit beta) | 0.58 | 1 | -0.219 | -0.143 | -0.182 | inactive
TRIO (trio Rho guanine nucleotide exchange factor) | 0.58 | 1 | -0.203 | -0.0129 | -0.0485 | inactive
RIPK1 (receptor interacting serine/threonine kinase 1) | 0.245 | 0.974 | -0.167 | -0.0727 | -0.0208 | inactive
STK40 (serine/threonine kinase 40) | 0.525 | 0.996 | -0.148 | -0.165 | -0.0374 | inactive
TSSK2 (testis specific serine kinase 2) | 0.58 | 1 | -0.208 | -0.0433 | -0.0125 | inactive
SRPK2 (SRSF protein kinase 2) | 0.58 | 1 | -0.0569 | 0.047 | -0.0697 | inactive
MKNK2 (MAPK interacting serine/threonine kinase 2) | -0.607 | 0.907 | -0.291 | -0.243 | -0.0922 | inactive
MPP3 (MAGUK p55 scaffold protein 3) | -0.37 | 0.926 | 0.0999 | 0.0141 | 0.113 | inactive
ROR2 (ROR family WNT receptor 2) | 0.58 | 1 | -0.0462 | 0.0687 | 0.0902 | inactive
MAPK11 (mitogen-activated protein kinase 11) | 0.58 | 1 | -0.14 | -0.0863 | 0.0866 | inactive
WHR1 (winged helix repair factor 1) | 0.58 | 1 | -0.272 | -0.0408 | 0.0839 | inactive
PRKAR1B (protein kinase cAMP-dependent type I regulatory subunit beta) | -1.22 | 0.859 | -0.106 | -0.189 | -0.0209 | inactive
STK35 (serine/threonine kinase 35) | 0.58 | 1 | -0.272 | -0.155 | 0.0576 | inactive
BRD3 (bromodomain containing 3) | 0.58 | 1 | -0.272 | -0.211 | 0.0969 | inactive
RIOK1 (RIO kinase 1) | 0.58 | 1 | -0.235 | -0.211 | -0.0332 | inactive
LMTK2 (lemur tail kinase 2) | 0.58 | 1 | -0.0817 | -0.0106 | 0.00246 | inactive
TEK (TEK receptor tyrosine kinase) | 0.58 | 1 | -0.195 | -0.175 | -0.0453 | inactive
WNK1 (WNK lysine deficient protein kinase 1) | 0.58 | 1 | -0.197 | -0.211 | -0.133 | inactive
PMVK (phosphomevalonate kinase) | 0.58 | 1 | -0.148 | -0.167 | 0.0317 | inactive
UCKL1 (uridine-cytidine kinase 1 like 1) | 0.224 | 0.972 | -0.166 | -0.0305 | 0.00527 | inactive
STK32C (serine/threonine kinase 32C) | 0.58 | 1 | -0.0796 | -0.115 | -0.0629 | inactive
PDK4 (pyruvate dehydrogenase kinase 4) | 0.58 | 1 | -0.211 | -0.123 | 0.0244 | inactive
PTPN11 (protein tyrosine phosphatase non-receptor type 11) | 0.58 | 1 | -0.174 | -0.0019 | -0.0268 | inactive
BRWD1 (bromodomain and WD repeat domain containing 1) | 0.0958 | 0.962 | -0.157 | 0.0147 | 0.176 | inactive
PIKFYVE (phosphoinositide kinase, FYVE-type zinc finger containing) | 0.58 | 1 | -0.167 | -0.0926 | -0.114 | inactive
FRK (fyn related Src family tyrosine kinase) | -0.968 | 0.879 | -0.186 | -0.261 | -0.0931 | inactive
TSKS (testis specific serine kinase substrate) | 0.58 | 1 | -0.272 | -0.134 | -0.156 | inactive
